No constants are given. Whether binding was seen depends on the method and setting. Some binding calls cover weakened binding; strength is not graded here.
T1: Cynomolgus hepcidin 25 (Cynomolgus monkey, UniProt A7XEI3 60-84, not fully specified)
T1 construct: mature; also called Cynomolgous hepcidin 25
T1 peptide: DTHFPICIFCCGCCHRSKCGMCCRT

T2: Hepcidin-25 containing a C-terminal biotin group (human)
T2 sequence (peptide, C-terminal biotin group): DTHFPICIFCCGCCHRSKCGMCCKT


Experiments:
Cynomolgus hepcidin 25 = molecular target: T1, Cynomolgus hepcidin 25; experiment: SPR (Biacore T200), mutein immobilized on CM5 chip, 1:1 binding model
[1] = molecular target: T2, Hepcidin-25 containing a C-terminal biotin group (human); experiment: solution competition ECL assay, 25 pM Hepcidin-25-C-bio, competitor 12B9 on the plate

binding [1]	Binder	binding (Cynomolgus hepcidin 25)
–	hepcidin-specific lipocalin mutein (hNGAL mutein) having the sequence of SEQ ID NO: 1 (designed binder, also called the lipocalin mutein; hNGAL mutein having a free cysteine residue at amino acid position 87) QDSTSDLIPAPPLSKVPLQQNFQDNQFHGKWYVVGLAGNEVLREDKDPMKMWATIYELKEDKSYNVTIVMPLAEKCEYLFQTFVPGCQPGEFTLGGIKSGPGRTSGLVRVVSTNYNQHAMVFFKVVWQNREVFWVTLYGRTKELTSELKENFIRFSKSLGLPENHIVFPVPIDQCIDG	binds
binds	lipocalin mutein (SEQ ID NO: 3) (designed binder) QDSTSDLIPAPPLSKVPLQQNFQDNQFHGKWYVVGLAGNEVLREDKDPMKMWATIYELEEDKSYNVTIVMFLAKKCEYLFQTFVPGSQPGEFTLGDIKSSPGRTSGLVRVVSTNYNQHAMVFFKTVWQNREVFWITLYGRTKELTSELKENFIRFSKSLGLPENHIVFPVPIDQCIDG	–

Source: patent US20180311311A1 (Pieris, published 2018)
